Results deposited as PubChem BioAssay AID1259405 (NCATS, 2018)
This is a random part of about 50,000 reagents tested. In the full data, about 4,000 (8%) were called active. 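Mouse siRNA library applied to hamster cells; one well for each siRNA.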 Reagents against one gene are numbered here. Not all columns of the deposit are shown.

Purpose: 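Silenced genes that increase secreted GFP made by CHO cells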 (primary screen)
Cell system: Chinese hamster CHO-K1 ovary cells with stable secreted eGFP expression
Reagents: single siRNA against mouse genes, 0.8 pmol siRNA per well (2 µl of 400 nM stock)
Duration: 3 days
Detection: 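Percent of the per-plate non-targeting control median for intracellular GFP per well by laser scanning cytometry and for cell viability by ATP luminescence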
Scale: GFP, % of control: higher = more GFP per well, higher productivity
Call rule: 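a knock-down is called active if GFP reaches 120% or more of non-targeting control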

GFP, % of control, by gene and reagent
Or8k30 (olfactory receptor family 8 subfamily K member 30): #1 152 active; #2 35.7 inactive; #3 113 inactive
Atp6v1b1 (ATPase, H+ transporting, lysosomal V1 subunit B1): #1 80.8 inactive; #2 48.2 inactive; #3 41 inactive
Spast (spastin): #1 64.1 inactive; #2 64.3 inactive
Gbp9 (guanylate-binding protein 9): #1 116 inactive; #2 76.3 inactive; #3 20.8 inactive
Klf8 (Kruppel-like transcription factor 8): #1 73.7 inactive; #2 74.1 inactive; #3 67.7 inactive
Gm5087 (predicted gene 5087): #1 82.9 inactive; #2 95.8 inactive; #3 83.3 inactive
Nfe2l1 (nuclear factor, erythroid derived 2,-like 1): #1 52.9 inactive; #2 51.6 inactive; #3 85 inactive
Pbk (PDZ binding kinase): #1 63.2 inactive
Frmd4b (FERM domain containing 4B): #1 49.8 inactive; #2 63 inactive; #3 66.7 inactive
Mcm9: #1 62.8 inactive; #2 50.8 inactive; #3 98.9 inactive; #4 60.3 inactive; #5 53.9 inactive; #6 109 inactive
Cbln4 (cerebellin 4 precursor protein): #1 68 inactive; #2 45.2 inactive; #3 31.7 inactive
Aspm (abnormal spindle microtubule assembly): #1 85.2 inactive; #2 63.1 inactive; #3 65.2 inactive
Sytl2 (synaptotagmin-like 2): #1 61.7 inactive; #2 71.8 inactive; #3 67.7 inactive
Gm5622 (predicted gene 5622): #1 81.6 inactive; #2 70.8 inactive; #3 119 inactive
Tex22 (testis expressed gene 22): #1 68.8 inactive; #2 240 active; #3 63.3 inactive
Rptor (regulatory associated protein of MTOR, complex 1): #1 103 inactive; #2 106 inactive; #3 83.7 inactive
Tmed2 (transmembrane p24 trafficking protein 2): #1 72.4 inactive; #2 89.6 inactive; #3 74.1 inactive
Sh3rf2 (SH3 domain containing ring finger 2): #1 90.7 inactive; #2 46.9 inactive; #3 76.3 inactive
Cxcl3 (C-X-C motif chemokine ligand 3): #1 42.6 inactive; #2 55.5 inactive; #3 34.5 inactive
Slc4a4: #1 123 active; #2 160 active; #3 73.3 inactive
Ccdc77 (coiled-coil domain containing 77): #1 85.3 inactive; #2 70.6 inactive; #3 66.7 inactive
Gosr2 (golgi SNAP receptor complex member 2): #1 25.8 inactive; #2 66.5 inactive; #3 99.3 inactive
Fam53a (family with sequence similarity 53, member A): #1 92.9 inactive; #2 44.9 inactive; #3 101 inactive
Neil1 (nei endonuclease VIII-like 1 (E. coli)): #1 72.5 inactive; #2 113 inactive; #3 63 inactive
Txndc17 (thioredoxin domain containing 17): #1 163 active; #2 105 inactive; #3 104 inactive
Amy2a5 (amylase 2a5): #1 91.8 inactive; #2 135 active; #3 39.6 inactive
Rps20 (ribosomal protein S20): #1 65 inactive; #2 64.2 inactive; #3 60.2 inactive
Lrig1 (leucine-rich repeats and immunoglobulin-like domains 1): #1 86.3 inactive; #2 78.1 inactive; #3 95.8 inactive
Ubn2 (ubinuclein 2): #1 69.2 inactive; #2 54.2 inactive; #3 55 inactive
Syt12 (synaptotagmin XII): #1 78.2 inactive; #2 111 inactive
Coa5 (cytochrome C oxidase assembly factor 5): #1 88.9 inactive; #2 90.1 inactive; #3 135 active
Calm3 (calmodulin 3): #1 89.4 inactive; #2 86.9 inactive
Mmp8 (matrix metallopeptidase 8): #1 130 active; #2 80 inactive
Bckdha (branched chain ketoacid dehydrogenase E1, alpha polypeptide): #1 139 active; #2 107 inactive; #3 77 inactive
Syt3 (synaptotagmin III): #1 53 inactive; #2 87.5 inactive
Loxl2 (lysyl oxidase-like 2): #1 121 active; #2 75.2 inactive; #3 62.8 inactive
Rexo2 (RNA exonuclease 2): #1 71.5 inactive; #2 67.3 inactive; #3 71.4 inactive
